The source of these data is the supplement of paper PMC3334620.

Over roughly 33,000 sequences, “E-score (-0.5 to 0.5)” has its median near -0.016; the highest 2% begin near 0.3. Some of the results follow.

This test addresses T1, Yer184c (UniProt P39961).
T1 sequence: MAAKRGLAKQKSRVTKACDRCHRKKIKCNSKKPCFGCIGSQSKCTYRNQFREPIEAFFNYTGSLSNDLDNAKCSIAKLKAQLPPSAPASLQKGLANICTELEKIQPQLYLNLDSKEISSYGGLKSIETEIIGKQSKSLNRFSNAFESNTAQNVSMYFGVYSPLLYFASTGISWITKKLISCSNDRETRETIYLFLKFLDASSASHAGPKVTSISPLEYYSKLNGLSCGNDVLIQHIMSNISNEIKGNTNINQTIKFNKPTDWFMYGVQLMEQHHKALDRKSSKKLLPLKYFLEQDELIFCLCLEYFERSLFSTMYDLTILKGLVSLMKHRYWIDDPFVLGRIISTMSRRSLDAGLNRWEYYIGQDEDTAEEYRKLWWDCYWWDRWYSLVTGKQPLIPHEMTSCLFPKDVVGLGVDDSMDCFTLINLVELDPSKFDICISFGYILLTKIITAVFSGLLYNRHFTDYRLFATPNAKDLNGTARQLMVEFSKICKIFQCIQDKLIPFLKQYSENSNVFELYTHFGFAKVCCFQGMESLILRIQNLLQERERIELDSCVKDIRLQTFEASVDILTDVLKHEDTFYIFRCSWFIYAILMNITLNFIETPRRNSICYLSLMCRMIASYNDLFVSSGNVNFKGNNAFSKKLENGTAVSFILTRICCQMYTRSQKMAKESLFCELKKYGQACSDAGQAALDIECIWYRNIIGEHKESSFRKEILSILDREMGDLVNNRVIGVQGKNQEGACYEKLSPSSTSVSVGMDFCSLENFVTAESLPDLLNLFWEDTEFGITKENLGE
Briefly: PBM E-score (8-mer binding enrichment) (E-score (-0.5 to 0.5)); higher = stronger / more preferred TF binding. As to conditions: protein concentration: 100 nM; construct: GST-full length. The gist of the method:
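Using PURExpress in vitro transcription/translation, GST-tagged yeast transcription factors were made in full-length or DNA-binding-domain form. These were applied at about 100-200 nM to double-stranded universal all-10-mer Agilent arrays, and bound protein was detected with fluorescent anti-GST. Scans were normalised with masliner before the Universal PBM Analysis Suite assigned E-scores to ungapped eight-base words pooled with their reverse complements.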
Regarding ACACTAAT, the “PBM E-score” value is 0.0395.
Turning to CGGCTGTC, the “PBM E-score” value is 0.135.
As for CGAGCGTC, the figure is -0.145; as for CCTTCGAA, 0.0746.
As for CCCGGCTC, the figure is 0.281; as for AGACTCTA, -0.124; as for ACGAATAC, 0.125.
With AATACGGC, the “PBM E-score” value is 0.291.
Consider AGTTGTGA, for which the “PBM E-score” value was found to be 0.103.
As for GGAAACAA, the “PBM E-score” value worked out at 0.15.
Take CCAAACAA: the “PBM E-score” value worked out at 0.122.
On to ACACCATG, for which the “PBM E-score” value is -0.237.
In the case of AAAATCTT, the “PBM E-score” value came out at 0.11.
With AGAGGGAG, the “PBM E-score” value is -0.248.
In the case of ACCGGCAC, the “PBM E-score” value was 0.363.
Take ACAGTGAG: the “PBM E-score” value was -0.251.
Turning to CTTAGACC, the “PBM E-score” value is -0.0357.
As for CCTTCCAC, the figure is -0.317; as for AATTACCT, 0.0235.
For the sequence CTTAGCTC, the “PBM E-score” value turned out to be 0.00985.
As for GGGCATTA, the “PBM E-score” value was -0.199.
The result for GCTCACTA reads -0.136.
Consider GTCGTTTA, for which the “PBM E-score” value turned out to be 0.0906.
Consider CTTCCATA, for which the “PBM E-score” value is -0.0174.
With CAGGAAGG, the “PBM E-score” value is -0.268.
With CAGGTAGA, the “PBM E-score” value was -0.115.
As for ACCCCAGT, the figure is -0.219; as for AGATGATG, -0.0716; as for GGCCGTTA, 0.122.
In the case of GGGGGGCA, the “PBM E-score” value is -0.462.
With TGACCCCA, the “PBM E-score” value was -0.145.
For the sequence GGCTAGCC, the “PBM E-score” value is -0.111.
Regarding AGTTAACG, the “PBM E-score” value was 0.153.
For the sequence ACGGGCTG, the “PBM E-score” value is -0.045.
Take TCGGTAGA: the “PBM E-score” value was found to be 0.307.
The result for CAGTCTAA reads 0.0414.
Consider TAAGCGTA, for which the “PBM E-score” value is -0.233.
On to CGCGGTTC, for which the “PBM E-score” value was determined as 0.123.
For the sequence GAGGCACA, the “PBM E-score” value was -0.165.
As for AGGAGGCG, the “PBM E-score” value is -0.285.
The result for ACTTGTAC reads -0.112; that for CCTCTTCC, -0.198.
Turning to GACGAACC, the “PBM E-score” value is -0.00982.
For the sequence ATGGTAGC, the “PBM E-score” value was -0.152.
AGGGGCTC: the “PBM E-score” value was -0.341.
For the sequence TACCCTCA, the “PBM E-score” value is -0.158.
In the case of GCCCAGTA, the “PBM E-score” value is -0.14.
As to GTTACAAA, the “PBM E-score” value turned out to be 0.251.
Consider AAGGTACC, for which the “PBM E-score” value was -0.0708.
As for CCAGCGCA, the figure is -0.153.
As for CGCTTATC, the “PBM E-score” value was -0.104.
The result for ACCCGTAG reads -0.34; that for ACAACCTC, -0.285.
As for CAGGGGCG, the “PBM E-score” value was -0.264.
As to ATCGCAAG, the “PBM E-score” value was -0.03.
Take AACGACCT: the “PBM E-score” value was -0.125.
The result for CATTGCGG reads 0.0483; that for CTGTGTGA, 0.0173; that for TTCATGAA, 0.0516.
In the case of GCGTGTGA, the “PBM E-score” value is -0.0408.
ATTGCCGA: the “PBM E-score” value was 0.311.
For the sequence AGCCTGCA, the “PBM E-score” value is -0.0587.
In the case of CTATATAG, the “PBM E-score” value was -0.109.
As to CCAATTTA, the “PBM E-score” value is 0.144.
As for AGAATGGA, the figure is 0.111; as for CTTCCCCA, -0.2.
On to GGTGTACA, for which the “PBM E-score” value is -0.192.
As for CTAAAGTA, the “PBM E-score” value is -0.0708.
On to CCAGTAAC, for which the “PBM E-score” value is 0.0685.
Regarding AACGCCTC, the “PBM E-score” value is -0.271.
The result for GCCCCGAA reads 0.0495; that for CTATGATA, 0.162; that for CAGCTCTA, -0.245.
In the case of AAACGGGA, the “PBM E-score” value worked out at 0.0951.
On to AAAAATCG, for which the “PBM E-score” value turned out to be 0.16.
Turning to AAGCTCCT, the “PBM E-score” value was -0.237.
With AAGTTCCG, the “PBM E-score” value is 0.307.
For the sequence GTGCAGGA, the “PBM E-score” value was -0.147.
TACTGAGA: the “PBM E-score” value is -0.0163.
The result for ACTTCTTA reads 0.00115; that for CAGCGCGA, -0.0936; that for GGTCTCTA, -0.0615.
Consider AGCATAGC, for which the “PBM E-score” value was -0.255.
Consider CGCTACCG, for which the “PBM E-score” value stood at 0.0261.
With AGCGATCA, the “PBM E-score” value was -0.088.
As to GGAGTAAC, the “PBM E-score” value stood at 0.0833.
